For assay [1], the target named is T1, interferon regulatory factor 1 (IRF-1) (mouse (endogenous in MASMCs)) (UniProt P15314).
T1 sequence: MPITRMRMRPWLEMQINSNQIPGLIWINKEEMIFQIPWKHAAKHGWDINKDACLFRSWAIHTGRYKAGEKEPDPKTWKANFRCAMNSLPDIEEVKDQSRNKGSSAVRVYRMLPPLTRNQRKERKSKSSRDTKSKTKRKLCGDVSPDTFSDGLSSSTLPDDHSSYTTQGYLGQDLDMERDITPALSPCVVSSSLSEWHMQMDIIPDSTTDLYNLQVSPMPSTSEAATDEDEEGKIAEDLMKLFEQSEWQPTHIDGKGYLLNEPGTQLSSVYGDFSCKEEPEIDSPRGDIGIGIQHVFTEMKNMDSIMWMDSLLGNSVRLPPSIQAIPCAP
Description: two-step ChIP; formaldehyde cross-linked chromatin, anti-Klf-5 and anti-IRF-1 antibodies, AT2R promoter read by qRT-PCR. (In general: Real-time PCR tracks product formation cycle by cycle.)

Sequences of proteins named here, by UniProt entry; tags and fusion partners are left off.
UniProt Q9Z0Z7: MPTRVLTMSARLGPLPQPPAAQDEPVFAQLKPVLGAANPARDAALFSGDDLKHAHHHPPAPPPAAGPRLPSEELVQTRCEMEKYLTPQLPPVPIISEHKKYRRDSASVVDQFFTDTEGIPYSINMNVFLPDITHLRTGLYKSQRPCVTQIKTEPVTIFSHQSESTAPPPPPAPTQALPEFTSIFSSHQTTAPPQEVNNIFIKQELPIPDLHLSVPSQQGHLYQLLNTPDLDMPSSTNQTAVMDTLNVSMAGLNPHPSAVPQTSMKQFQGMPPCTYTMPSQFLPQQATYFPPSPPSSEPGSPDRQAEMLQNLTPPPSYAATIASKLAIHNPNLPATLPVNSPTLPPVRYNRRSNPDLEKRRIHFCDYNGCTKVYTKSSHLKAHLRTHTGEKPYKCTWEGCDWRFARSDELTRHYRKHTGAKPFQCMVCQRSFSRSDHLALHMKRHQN

For assay [2], the target named is T1, interferon regulatory factor 1 (IRF-1) (mouse (endogenous in MASMCs)). Description: co-IP; reciprocal: MASMC lysates immunoprecipitated with anti-IRF-1 or anti-Klf-5, protein A-agarose, 4 °C; washed in 50 mM Tris-HCl pH 8.0, 150 mM NaCl, 5 mM EDTA, 0.5% NP-40; blotted with anti-Klf-5 and anti-IRF-1; cells treated with AT1-AA over time (interaction peaked at 45 min).

No constants are given. Whether binding was seen depends on the method and setting. For some assays here: Binding seen in cells or lysates may run through a third protein. Some entries that bind do so weakly or less than the wild type.

Klf-5 (from UniProt Q9Z0Z7 1-446): the binding entry in assay [1] and in assay [2] was “binds” throughout.

Source of the values: publication PMC7280191.
